Results: the supplement of paper PMC6411743
± gives the standard deviation of the averaged measurements. Some of the results follow.

Columns and labels:
Assay in all cases: NP40-soluble protein abundance relative to vehicle (solubility fold change) (ratio); higher = more soluble protein in presence of GTP
F5GX51 = biological target: T1, F5GX51 (UniProt Q9Y4F9)
T1 sequence (whole entry): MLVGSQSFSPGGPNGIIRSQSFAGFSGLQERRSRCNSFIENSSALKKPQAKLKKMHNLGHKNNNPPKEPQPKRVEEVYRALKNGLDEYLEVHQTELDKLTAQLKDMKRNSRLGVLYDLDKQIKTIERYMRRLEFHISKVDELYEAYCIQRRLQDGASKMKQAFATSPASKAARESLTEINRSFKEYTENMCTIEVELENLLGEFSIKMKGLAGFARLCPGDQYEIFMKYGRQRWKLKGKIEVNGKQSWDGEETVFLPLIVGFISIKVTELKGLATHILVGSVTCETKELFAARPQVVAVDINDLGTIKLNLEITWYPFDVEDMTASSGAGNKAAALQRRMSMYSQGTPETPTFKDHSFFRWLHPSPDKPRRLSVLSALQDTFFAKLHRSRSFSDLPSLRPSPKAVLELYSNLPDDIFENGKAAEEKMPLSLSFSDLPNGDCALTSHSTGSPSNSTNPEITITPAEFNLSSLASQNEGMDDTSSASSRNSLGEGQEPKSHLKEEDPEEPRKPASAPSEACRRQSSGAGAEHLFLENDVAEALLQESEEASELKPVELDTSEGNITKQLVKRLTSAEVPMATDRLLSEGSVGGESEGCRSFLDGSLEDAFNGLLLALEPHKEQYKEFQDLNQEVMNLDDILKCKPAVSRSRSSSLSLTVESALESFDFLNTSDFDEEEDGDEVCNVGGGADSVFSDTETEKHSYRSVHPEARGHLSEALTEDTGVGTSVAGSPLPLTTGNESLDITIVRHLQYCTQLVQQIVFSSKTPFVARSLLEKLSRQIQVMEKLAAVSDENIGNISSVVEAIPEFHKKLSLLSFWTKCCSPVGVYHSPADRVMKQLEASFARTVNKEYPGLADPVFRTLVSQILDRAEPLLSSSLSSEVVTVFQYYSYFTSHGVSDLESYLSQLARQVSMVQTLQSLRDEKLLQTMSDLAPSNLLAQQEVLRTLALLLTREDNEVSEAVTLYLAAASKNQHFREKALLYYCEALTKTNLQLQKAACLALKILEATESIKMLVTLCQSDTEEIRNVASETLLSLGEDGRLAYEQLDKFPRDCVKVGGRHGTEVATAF
How it was run: (§1)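 Each value is a fold change relative to the detergent-processed vehicle, calculated per replicate from vsn-normalised intensities. Jurkat crude lysate received eight concentrations (0.1 to 10 mM) for 10 min at room temperature and 3 min at 37 °C, then was solubilised in 0.8% NP40 with benzonase (60 min, 4 °C). The ultracentrifuged supernatant was TMT-labelled and run by LC-MS/MS in three independent experiments.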

[1] = biological target: T2, F5GYG5 and related entries (UniProt Q9Y3B8)
T2 sequence (whole entry): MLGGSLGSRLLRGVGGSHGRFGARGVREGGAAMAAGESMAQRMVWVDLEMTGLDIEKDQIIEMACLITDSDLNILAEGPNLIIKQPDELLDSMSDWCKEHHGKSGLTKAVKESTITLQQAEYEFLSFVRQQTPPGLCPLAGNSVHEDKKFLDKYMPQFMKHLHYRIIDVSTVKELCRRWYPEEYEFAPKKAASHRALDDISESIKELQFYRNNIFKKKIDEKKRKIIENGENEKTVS
How it was run: as §1

[2] = biological target: T3, F5H2B9 and related entries (UniProt Q9BZF9)
T3 sequence (whole entry): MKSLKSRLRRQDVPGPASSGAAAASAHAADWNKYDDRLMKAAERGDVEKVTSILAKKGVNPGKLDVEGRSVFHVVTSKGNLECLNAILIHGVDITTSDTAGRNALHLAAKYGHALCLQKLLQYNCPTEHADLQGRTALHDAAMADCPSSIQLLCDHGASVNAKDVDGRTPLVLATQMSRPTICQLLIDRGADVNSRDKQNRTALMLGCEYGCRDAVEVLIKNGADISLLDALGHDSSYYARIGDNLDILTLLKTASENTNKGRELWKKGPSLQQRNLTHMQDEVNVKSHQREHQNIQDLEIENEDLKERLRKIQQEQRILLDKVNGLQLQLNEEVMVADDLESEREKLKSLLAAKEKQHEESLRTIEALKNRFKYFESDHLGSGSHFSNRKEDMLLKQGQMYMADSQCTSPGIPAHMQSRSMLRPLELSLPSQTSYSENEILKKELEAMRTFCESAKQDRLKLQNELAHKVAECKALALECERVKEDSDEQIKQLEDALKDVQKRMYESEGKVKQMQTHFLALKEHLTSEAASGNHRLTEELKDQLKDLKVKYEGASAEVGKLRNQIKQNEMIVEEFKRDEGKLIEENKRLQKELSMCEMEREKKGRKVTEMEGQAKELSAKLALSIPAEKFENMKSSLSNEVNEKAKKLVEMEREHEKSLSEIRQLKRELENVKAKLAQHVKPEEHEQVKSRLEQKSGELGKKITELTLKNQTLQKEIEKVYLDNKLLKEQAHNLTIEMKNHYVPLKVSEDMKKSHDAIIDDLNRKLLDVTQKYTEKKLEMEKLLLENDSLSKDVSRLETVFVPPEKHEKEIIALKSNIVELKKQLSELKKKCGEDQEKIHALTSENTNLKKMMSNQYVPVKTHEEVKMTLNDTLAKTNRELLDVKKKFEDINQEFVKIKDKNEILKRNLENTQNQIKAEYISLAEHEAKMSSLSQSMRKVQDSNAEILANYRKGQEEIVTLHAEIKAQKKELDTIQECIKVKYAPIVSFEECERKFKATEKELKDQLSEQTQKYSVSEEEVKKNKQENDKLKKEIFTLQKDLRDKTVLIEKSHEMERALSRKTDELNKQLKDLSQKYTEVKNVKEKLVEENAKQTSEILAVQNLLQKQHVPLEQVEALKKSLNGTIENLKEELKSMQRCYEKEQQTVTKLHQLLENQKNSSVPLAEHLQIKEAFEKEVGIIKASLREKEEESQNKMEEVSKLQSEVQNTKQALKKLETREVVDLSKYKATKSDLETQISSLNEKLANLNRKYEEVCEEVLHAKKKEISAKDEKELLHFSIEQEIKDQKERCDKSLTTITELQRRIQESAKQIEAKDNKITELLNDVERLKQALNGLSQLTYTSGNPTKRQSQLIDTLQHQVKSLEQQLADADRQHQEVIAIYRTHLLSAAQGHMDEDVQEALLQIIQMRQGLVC
How it was run: as §1

F5H658 = biological target: T4, F5H658 (UniProt Q14562)
T4 sequence (whole entry): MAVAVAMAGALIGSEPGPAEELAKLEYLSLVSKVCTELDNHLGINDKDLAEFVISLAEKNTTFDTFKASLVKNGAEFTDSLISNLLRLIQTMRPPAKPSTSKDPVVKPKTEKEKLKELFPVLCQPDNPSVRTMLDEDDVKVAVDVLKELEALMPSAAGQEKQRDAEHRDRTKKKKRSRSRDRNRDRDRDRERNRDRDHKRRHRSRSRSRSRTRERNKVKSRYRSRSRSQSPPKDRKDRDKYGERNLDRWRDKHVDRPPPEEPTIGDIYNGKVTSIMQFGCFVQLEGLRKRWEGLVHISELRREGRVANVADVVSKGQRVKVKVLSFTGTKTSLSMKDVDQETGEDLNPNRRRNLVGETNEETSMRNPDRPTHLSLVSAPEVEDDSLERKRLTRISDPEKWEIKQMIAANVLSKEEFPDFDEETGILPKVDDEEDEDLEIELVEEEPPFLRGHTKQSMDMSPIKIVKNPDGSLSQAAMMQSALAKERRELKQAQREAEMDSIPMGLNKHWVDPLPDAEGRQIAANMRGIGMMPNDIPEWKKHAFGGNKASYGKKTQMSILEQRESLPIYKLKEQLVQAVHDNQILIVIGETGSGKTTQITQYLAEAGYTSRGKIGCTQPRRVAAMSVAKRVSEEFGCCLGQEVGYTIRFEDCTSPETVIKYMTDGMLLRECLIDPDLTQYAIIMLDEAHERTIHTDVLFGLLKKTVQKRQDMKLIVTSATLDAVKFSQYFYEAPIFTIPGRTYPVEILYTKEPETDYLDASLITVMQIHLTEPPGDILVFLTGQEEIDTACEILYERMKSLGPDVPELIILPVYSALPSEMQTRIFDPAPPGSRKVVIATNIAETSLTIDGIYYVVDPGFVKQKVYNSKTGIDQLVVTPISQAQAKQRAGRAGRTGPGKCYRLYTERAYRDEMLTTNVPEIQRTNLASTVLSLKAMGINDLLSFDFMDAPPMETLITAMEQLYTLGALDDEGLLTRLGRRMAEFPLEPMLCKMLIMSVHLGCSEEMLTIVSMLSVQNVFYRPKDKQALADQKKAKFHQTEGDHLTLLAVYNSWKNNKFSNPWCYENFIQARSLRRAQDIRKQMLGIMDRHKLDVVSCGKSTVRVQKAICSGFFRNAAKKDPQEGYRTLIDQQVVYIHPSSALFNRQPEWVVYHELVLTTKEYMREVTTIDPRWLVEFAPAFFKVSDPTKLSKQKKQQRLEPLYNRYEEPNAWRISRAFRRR
How it was run: as §1

[3] = biological target: T5, F5H7W8 and related entries (UniProt Q96C57)
T5 sequence (whole entry): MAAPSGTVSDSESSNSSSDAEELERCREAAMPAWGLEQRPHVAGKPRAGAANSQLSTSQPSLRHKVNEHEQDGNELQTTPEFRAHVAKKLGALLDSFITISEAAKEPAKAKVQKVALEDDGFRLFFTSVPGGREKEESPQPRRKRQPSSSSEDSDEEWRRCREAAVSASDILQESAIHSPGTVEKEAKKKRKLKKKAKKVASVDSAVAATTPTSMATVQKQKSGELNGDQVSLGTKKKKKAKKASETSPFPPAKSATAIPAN
How it was run: as §1

Nc1nc2c(ncn2[C@@H]2O[C@H](COP(=O)(O)OP(=O)(O)OP(=O)(O)O)[C@@H](O)[C@H]2O)c(=O)[nH]1 [guanosine triphosphate]
NP40-soluble protein abundance (F5GX51; concentration: 4mM): 0.966 ± 0.066
NP40-soluble protein abundance (F5GX51; concentration: 6mM): 0.969 ± 0.1
NP40-soluble protein abundance (F5GX51; concentration: 8mM): 0.972 ± 0.045
NP40-soluble protein abundance (F5GX51; concentration: 10mM): 0.968 ± 0.073
NP40-soluble protein abundance ([1]; concentration: 0.1mM): 0.889 ± 0.045
NP40-soluble protein abundance ([1]; concentration: 0.5mM): 0.832 ± 0.036
NP40-soluble protein abundance ([1]; concentration: 1mM): 0.959 ± 0.053
NP40-soluble protein abundance ([1]; concentration: 2mM): 0.903 ± 0.032
NP40-soluble protein abundance ([1]; concentration: 4mM): 0.878 ± 0.041
NP40-soluble protein abundance ([1]; concentration: 6mM): 0.916 ± 0.049
NP40-soluble protein abundance ([1]; concentration: 8mM): 0.856 ± 0.11
NP40-soluble protein abundance ([1]; concentration: 10mM): 0.876 ± 0.038
NP40-soluble protein abundance ([2]; concentration: 0.1mM): 0.959 ± 0.099
NP40-soluble protein abundance ([2]; concentration: 0.5mM): 0.951 ± 0.073
NP40-soluble protein abundance ([2]; concentration: 1mM): 0.992 ± 0.18
NP40-soluble protein abundance ([2]; concentration: 2mM): 0.926 ± 0.12
NP40-soluble protein abundance ([2]; concentration: 4mM): 0.961 ± 0.22
NP40-soluble protein abundance ([2]; concentration: 6mM): 0.961 ± 0.13
NP40-soluble protein abundance ([2]; concentration: 8mM): 1.03 ± 0.19
NP40-soluble protein abundance ([2]; concentration: 10mM): 0.941 ± 0.071
NP40-soluble protein abundance (F5H658; concentration: 0.1mM): 1.1 ± 0.2
NP40-soluble protein abundance (F5H658; concentration: 0.5mM): 1.11 ± 0.15
NP40-soluble protein abundance (F5H658; concentration: 1mM): 1.12 ± 0.17
NP40-soluble protein abundance (F5H658; concentration: 2mM): 1.13 ± 0.18
NP40-soluble protein abundance (F5H658; concentration: 4mM): 1.18 ± 0.21
NP40-soluble protein abundance (F5H658; concentration: 6mM): 1.2 ± 0.16
NP40-soluble protein abundance (F5H658; concentration: 8mM): 1.19 ± 0.24
NP40-soluble protein abundance (F5H658; concentration: 10mM): 1.17 ± 0.2
NP40-soluble protein abundance ([3]; concentration: 0.1mM): 0.909 ± 0.065
NP40-soluble protein abundance ([3]; concentration: 0.5mM): 1 ± 0.14
